Here are results for one substance from PMC7254050.

No constants are given. Whether binding was seen depends on the method and setting. Binding seen in cells or lysates may run through a third protein.

For this assay, the target named is T1, Hyaluronidase (HYAL)-2 (human (endogenous in human lung fibroblasts AG02262)) (UniProt Q12891).
T1 sequence: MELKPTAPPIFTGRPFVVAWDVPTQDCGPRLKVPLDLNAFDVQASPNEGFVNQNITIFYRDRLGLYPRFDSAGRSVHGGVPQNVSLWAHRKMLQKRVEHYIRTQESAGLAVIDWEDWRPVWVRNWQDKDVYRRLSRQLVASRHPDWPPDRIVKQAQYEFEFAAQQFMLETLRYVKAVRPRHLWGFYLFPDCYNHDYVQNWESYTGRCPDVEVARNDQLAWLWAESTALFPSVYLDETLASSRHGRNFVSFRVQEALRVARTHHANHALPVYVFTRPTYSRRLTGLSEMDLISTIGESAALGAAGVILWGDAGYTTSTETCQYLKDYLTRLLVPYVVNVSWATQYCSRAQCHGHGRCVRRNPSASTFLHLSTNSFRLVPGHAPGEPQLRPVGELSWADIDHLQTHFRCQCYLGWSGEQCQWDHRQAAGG
Put plainly: co-IP; 25 μg protein of RIPA lysate of human lung fibroblasts (serum-free medium alone or 10 ng/mL TGF-β1, 72 hours) precipitated with anti-HYAL2 antibody-linked anti-rabbit Dynabeads, overnight at 4°C, three washes with Nonidet P-40 buffer; Western blot of the precipitate; rabbit IgG as negative control. In general terms: Immunoblotting shows a protein as a band on a membrane.

For the substance “calcium/calmodulin-dependent protein kinase type II (CaMKII) (enzyme)”, the binding entry is given as “no binding”.
